Experimental data published in PMC9426605.
Results are given in words; binding and its absence hold for the method and conditions named. Some binding calls cover weakened binding; strength is not graded here. Sequences can lack the tags named with a protein. Blank lines part the entries; values can stand above or below the binder they belong to.

Experiments:
Assay in all cases: two-hybrid; bacterial two-hybrid, pKT25 and pUT18 derivatives cotransformed in E. coli BTH101, 30°C, 0.5 mM IPTG; spots on X-Gal plates and β-galactosidase activity against MUG; positive cutoff 4-fold greater than T18/T25
[1] = molecular target: T1, DivIB (S. aureus) (UniProt Q2FZ91)
T1 sequence: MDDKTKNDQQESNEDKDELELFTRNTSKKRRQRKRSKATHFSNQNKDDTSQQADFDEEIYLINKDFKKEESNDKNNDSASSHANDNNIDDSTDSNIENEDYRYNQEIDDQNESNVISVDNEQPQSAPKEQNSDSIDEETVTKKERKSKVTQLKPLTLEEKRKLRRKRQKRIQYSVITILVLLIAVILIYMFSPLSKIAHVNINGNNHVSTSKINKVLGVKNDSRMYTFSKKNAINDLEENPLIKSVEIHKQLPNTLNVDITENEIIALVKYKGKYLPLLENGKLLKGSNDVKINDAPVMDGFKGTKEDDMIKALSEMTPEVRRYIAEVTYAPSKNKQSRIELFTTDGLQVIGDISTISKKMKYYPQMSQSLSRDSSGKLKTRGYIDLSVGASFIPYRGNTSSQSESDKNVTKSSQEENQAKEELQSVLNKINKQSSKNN

[2] = molecular target: T2, EzrA (S. aureus) (UniProt Q2FXK8)
T2 sequence: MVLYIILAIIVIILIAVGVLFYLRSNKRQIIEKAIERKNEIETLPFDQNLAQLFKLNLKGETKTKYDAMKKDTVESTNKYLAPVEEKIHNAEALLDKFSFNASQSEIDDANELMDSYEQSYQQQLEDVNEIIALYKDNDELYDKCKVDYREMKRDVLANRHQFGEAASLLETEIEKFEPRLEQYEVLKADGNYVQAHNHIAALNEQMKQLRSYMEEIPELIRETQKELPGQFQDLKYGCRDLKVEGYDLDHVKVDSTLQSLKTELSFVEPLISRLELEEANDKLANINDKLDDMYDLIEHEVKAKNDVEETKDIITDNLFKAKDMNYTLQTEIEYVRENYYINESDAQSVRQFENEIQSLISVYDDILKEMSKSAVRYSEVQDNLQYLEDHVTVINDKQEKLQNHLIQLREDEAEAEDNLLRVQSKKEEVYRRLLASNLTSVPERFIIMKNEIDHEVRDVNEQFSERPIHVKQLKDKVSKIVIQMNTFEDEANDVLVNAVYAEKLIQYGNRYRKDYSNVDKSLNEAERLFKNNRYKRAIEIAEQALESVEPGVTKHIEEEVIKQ

[3] = molecular target: T3, PBP2 (S. aureus) (UniProt Q2FYI0)
T3 sequence: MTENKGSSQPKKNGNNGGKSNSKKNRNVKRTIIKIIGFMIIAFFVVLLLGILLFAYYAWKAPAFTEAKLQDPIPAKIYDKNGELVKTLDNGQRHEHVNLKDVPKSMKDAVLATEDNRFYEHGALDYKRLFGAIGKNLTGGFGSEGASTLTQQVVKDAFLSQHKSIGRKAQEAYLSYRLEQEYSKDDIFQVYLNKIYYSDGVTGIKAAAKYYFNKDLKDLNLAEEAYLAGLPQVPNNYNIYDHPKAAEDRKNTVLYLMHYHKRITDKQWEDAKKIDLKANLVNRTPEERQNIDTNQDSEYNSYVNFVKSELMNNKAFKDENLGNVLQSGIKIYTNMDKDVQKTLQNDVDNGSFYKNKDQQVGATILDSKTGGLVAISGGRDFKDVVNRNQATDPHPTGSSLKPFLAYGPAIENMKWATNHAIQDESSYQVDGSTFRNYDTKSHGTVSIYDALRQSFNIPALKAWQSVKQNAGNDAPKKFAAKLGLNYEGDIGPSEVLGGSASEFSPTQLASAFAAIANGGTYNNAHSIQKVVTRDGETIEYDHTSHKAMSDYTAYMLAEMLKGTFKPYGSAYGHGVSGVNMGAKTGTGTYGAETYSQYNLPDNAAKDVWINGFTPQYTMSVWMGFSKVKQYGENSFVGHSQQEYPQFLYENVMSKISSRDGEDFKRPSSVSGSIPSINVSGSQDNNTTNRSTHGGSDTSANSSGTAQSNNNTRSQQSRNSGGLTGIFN

binding [1]: binds
binding [2]: binds
binding [3]: binds
B1: T25-PBP1_(ΔPASTA): S. aureus PBP1 without the PASTA domains (M1-S595) (domain or fragment, UniProt Q2FZ94 1-595)
chain: MAKQKIKIKKNKIGAVLLVGLFGLLFFILVLRISYIMITGHSNGQDLVMKANEKYLVKNAQQPERGKIYDRNGKVLAEDVERYKLVAVIDKKASANSKKPRHVVDKKETAKKLSTVINMKPEEIEKRLSQKKAFQIEFGRKGTNLTYQDKLKIEKMNLPGISLLPETERFYPNGNFASHLIGRAQKNPDTGELKGALGVEKIFDSYLSGSKGSLRYIHDIWGYIAPNTKKEKQPKRGDDVHLTIDSNIQVFVEEALDGMVERYQPKDLFAVVMDAKTGEILAYSQRPTFNPETGKDFGKKWANDLYQNTYEPGSTFKSYGLAAAIQEGAFDPDKKYKSGHRDIMGSRISDWNRVGWGEIPMSLGFTYSSNTLMMHLQDLVGADKMKSWYERFGFGKSTKGMFDGEAPGQIGWSNELQQKTSSFGQSTTVTPVQMLQAQSAFFNDGNMLKPWFVNSVENPVSKRQFYKGQKQIAGKPITKDTAEKVEKQLDLVVNSKKSHAANYRIDGYEVEGKTGTAQVAAPNGGGYVKGPNPYFVSFMGDAPKKNPKVIVYAGMSLAQKNDQEAYELGVSKAFKPIMENTLKYLNVGKSKDDTS

binding [1]: binds
binding [2]: binds
binding [3]: binds
B2: Penicillin-binding protein 1 (PBP1) of Staphylococcus aureus, T25 fusion (enzyme, UniProt Q2FZ94 1-744)
chain: MAKQKIKIKKNKIGAVLLVGLFGLLFFILVLRISYIMITGHSNGQDLVMKANEKYLVKNAQQPERGKIYDRNGKVLAEDVERYKLVAVIDKKASANSKKPRHVVDKKETAKKLSTVINMKPEEIEKRLSQKKAFQIEFGRKGTNLTYQDKLKIEKMNLPGISLLPETERFYPNGNFASHLIGRAQKNPDTGELKGALGVEKIFDSYLSGSKGSLRYIHDIWGYIAPNTKKEKQPKRGDDVHLTIDSNIQVFVEEALDGMVERYQPKDLFAVVMDAKTGEILAYSQRPTFNPETGKDFGKKWANDLYQNTYEPGSTFKSYGLAAAIQEGAFDPDKKYKSGHRDIMGSRISDWNRVGWGEIPMSLGFTYSSNTLMMHLQDLVGADKMKSWYERFGFGKSTKGMFDGEAPGQIGWSNELQQKTSSFGQSTTVTPVQMLQAQSAFFNDGNMLKPWFVNSVENPVSKRQFYKGQKQIAGKPITKDTAEKVEKQLDLVVNSKKSHAANYRIDGYEVEGKTGTAQVAAPNGGGYVKGPNPYFVSFMGDAPKKNPKVIVYAGMSLAQKNDQEAYELGVSKAFKPIMENTLKYLNVGKSKDDTSNAEYSKVPDVEGQDKQKAIDNVSAKSLEPVTIGSGTQIKAQSIKAGNKVLPHSKVLLLTDGDLTMPDMSGWTKEDVIAFENLTNIKVNLKGSGFVSHQSISKGQKLTEKDKIDVEFSSENVDSNSTNNSDSNSDDKKKSDSKTDKDKSD
